According to patent US6423335B1, “Modified milk powder composition” (priority 1999, dated 2002):

Assay: Low protein diet feeding in rats: body weight, weight of tissues, BUN, blood profile (Example 1)
Type: in vivo, rats (the Donryu strain)
Details: male rats, 5% (w/w) in 3% protein diet, three weeks
From the text: Four-week-age male rats (the Donryu strain) were fed 20% protein diet for one week. Then, glutamine (Gln) and glutamic acid (Glu) each were mixed into 3% protein diet at the level of 5% (w/w) and offered to the rats for three weeks. Also, a 20% protein diet group and a 3% protein diet group were set as controls. Upon each rat, body weight, weight of tissues, blood urea nitrogen (BUN), the level of leukocytes, the level of erythrocytes, hematocrit, the level of platelets, and production of TNF-α by peritoneal macrophage as an index of immune response were determined.

| SMILES | Lever weight [g/100 g/body weight] | Spleen weight [mg/100 g body weight] |
| --- | --- | --- |
| NC(=O)CC[C@H](N)C(=O)O [Gln, glutamine] | 3.8 ± 0.1 | 175.6 ± 8.6 |
| N[C@@H](CCC(=O)O)C(=O)O [Glu, glutamic acid] | 3.8 ± 0.2 | 179.7 ± 8.0 |
